Measurements reported in the supplement of paper PMC9233669.
Variants at the background level are over-represented here.

Columns and labels:
biotinyl-Ile-oxazolone = assay: self-aminoacylation, catalytic enhancement (BIO) (fold over background); higher = more active; k-Seq, kA / k0A0; sequences stand for … in GGGAAUGGAUCCACAUCUACGAAUUC…UUCACUGCAGACUUGACGAAGCUG
Outline: (§1)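 The uncatalyzed rate is the low-activity peak of a bimodal Gaussian fit, and catalytic enhancement is median kA divided by it. The kA values came from pseudo-first-order fits, with 1000 bootstraps, of per-sequence fraction reacted measured by streptavidin capture, triplicate qPCR and Illumina sequencing. Mutagenized RNA pools with a 21-nt variable region (0.43 μM) were reacted with each biotinyl-aminoacyl-oxazolone at 2–1250 μM in 50 μL HEPES/NaCl/KCl/MgCl2/CaCl2 buffer with 5% acetonitrile, pH 6.9–7.0, for 90 minutes at room temperature.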

biotinyl-Leu-oxazolone = assay: self-aminoacylation, catalytic enhancement (BLO) (fold over background); higher = more active; k-Seq, kA / k0A0; sequences stand for … in GGGAAUGGAUCCACAUCUACGAAUUC…UUCACUGCAGACUUGACGAAGCUG
Outline: as §1

biotinyl-Phe-oxazolone = assay: self-aminoacylation, catalytic enhancement (BFO) (fold over background); higher = more active; k-Seq, kA / k0A0; sequences stand for … in GGGAAUGGAUCCACAUCUACGAAUUC…UUCACUGCAGACUUGACGAAGCUG
Outline: as §1

biotinyl-Met-oxazolone = assay: self-aminoacylation, catalytic enhancement (BMO) (fold over background); higher = more active; k-Seq, kA / k0A0; sequences stand for … in GGGAAUGGAUCCACAUCUACGAAUUC…UUCACUGCAGACUUGACGAAGCUG
Outline: as §1

biotinyl-Val-oxazolone = assay: self-aminoacylation, catalytic enhancement (BVO) (fold over background); higher = more active; k-Seq, kA / k0A0; sequences stand for … in GGGAAUGGAUCCACAUCUACGAAUUC…UUCACUGCAGACUUGACGAAGCUG
Outline: as §1

biotinyl-Trp-oxazolone = assay: self-aminoacylation, catalytic enhancement (BWO) (fold over background); higher = more active; k-Seq, kA / k0A0; sequences stand for … in GGGAAUGGAUCCACAUCUACGAAUUC…UUCACUGCAGACUUGACGAAGCUG
Outline: as §1

Row | Sequence | self-aminoacylation (biotinyl-Ile-oxazolone) | self-aminoacylation (biotinyl-Leu-oxazolone) | self-aminoacylation (biotinyl-Phe-oxazolone) | self-aminoacylation (biotinyl-Met-oxazolone) | self-aminoacylation (biotinyl-Val-oxazolone) | self-aminoacylation (biotinyl-Trp-oxazolone)
1 | AUUACCCUGGGCAUCUAGUGA [Fam2.1 aminoacylation ribozyme variant] | 3 | 7.13 | 44.6 | 6.2 | 3.38 | 7.33
2 | AUUACCCUGGUACUCGAGUGA [Fam2.1 aminoacylation ribozyme variant] | 1.76 | 2.66 | 10.3 | 2.66 | 1.96 | 3.35
3 | AUUACCCUGGUCAUCCACUGA [Fam2.1 aminoacylation ribozyme variant] | 0.99 | 0.808 | 0.601 | 0.997 | 1.07 | 0.498
4 | AUUACCCUGGUCAUCCAGUAA [Fam2.1 aminoacylation ribozyme variant] | 1.34 | 1.27 | 0.819 | 1.18 | 1.11 | 2.35
5 | AUUACCCUGGUCAUCCAGUCA [Fam2.1 aminoacylation ribozyme variant] | 1.16 | 1.17 | 0.568 | 0.923 | 0.975 | 0.463
6 | AUUACCCUGGUCAUCCAUUGA [Fam2.1 aminoacylation ribozyme variant] | 1.08 | 1.14 | 1.15 | 0.84 | 1.08 | 0.684
7 | AUUACCCUGGUCAUCGAAGGA [Fam2.1 aminoacylation ribozyme variant] | 0.794 | 0.661 | 1.08 | 0.904 | 1.01 | 0.729
8 | AUUACCCUGGUCAUCGAAUGA [Fam2.1 aminoacylation ribozyme variant] | 1 | 1.08 | 0.974 | 1.07 | 1.06 | 0.908
9 | AUUACCCUGGUCAUCGAGUCA [Fam2.1 aminoacylation ribozyme variant] | 0.903 | 1.08 | 1.61 | 1.07 | 1.01 | 0.857
10 | AUUACCCUGGUCAUCGAUGGA [Fam2.1 aminoacylation ribozyme variant] | 1.03 | 0.926 | 1.14 | 1.08 | 1.12 | 1.19
11 | AUUACCCUGGUCAUCGAUUUA [Fam2.1 aminoacylation ribozyme variant] | 0.863 | 0.965 | 0.979 | 1.07 | 0.917 | 0.727
12 | AUUACCCUGGUCAUGCAGUGA [Fam2.1 aminoacylation ribozyme variant] | 1.07 | 1.17 | 0.826 | 1.39 | 1.13 | 0.944
13 | AUUACCCUGGUCAUGGAGUAA [Fam2.1 aminoacylation ribozyme variant] | 1.55 | 1.51 | 0.851 | 1.57 | 1.11 | 0.841
14 | AUUACCCUGGUCAUGGAUUGA [Fam2.1 aminoacylation ribozyme variant] | 0.919 | 0.845 | 0.696 | 0.895 | 0.769 | 1.02
15 | AUUACCCUGGUCAUUGAGUCA [Fam2.1 aminoacylation ribozyme variant] | 0.714 | 0.565 | 0.839 | 0.726 | 0.781 | 0.529
16 | AUUACCCUGGUCCUCGACUGA [Fam2.1 aminoacylation ribozyme variant] | 0.806 | 0.695 | 0.483 | 0.69 | 0.845 | 0.868
17 | AUUACCCUGGUCCUCGGGUGA [Fam2.1 aminoacylation ribozyme variant] | 5.18 | 10.4 | 69.6 | 9.89 | 6.25 | 9.25
18 | AUUACCCUGGUGAUCGAGUGC [Fam2.1 aminoacylation ribozyme variant] | 0.883 | 1.06 | 0.485 | 0.942 | 0.941 | 0.768
19 | AUUACCCUGGUUAUCGACUGA [Fam2.1 aminoacylation ribozyme variant] | 0.587 | 0.625 | 0.62 | 0.542 | 0.673 | 0.329
20 | AUUACCCUGGUUAUCGAGUCA [Fam2.1 aminoacylation ribozyme variant] | 1.04 | 0.982 | 0.691 | 0.782 | 1.11 | 0.571
21 | AUUACCCUGUUCAUCGAGGGA [Fam2.1 aminoacylation ribozyme variant] | 1.34 | 0.937 | 0.871 | 1.46 | 1.35 | 0.745
22 | AUUACCCUGUUCAUUGAGUGA [Fam2.1 aminoacylation ribozyme variant] | 5.73 | 12.7 | 83.6 | 13.8 | 5.4 | 16.3
23 | AUUACCCUUGUCAUCGACUGA [Fam2.1 aminoacylation ribozyme variant] | 0.949 | 0.818 | 0.535 | 0.837 | 0.693 | 0.392
